Measured values published in PMC12040169 (PLOS Biology, 2025).
The other results are listed elsewhere or left out.

Tested on: T1, CTL2-GFP (C. trachomatis L2/434/Bu, GFP-expressing)
T1 construct: L2/434/Bu, GFP-expressing
Set-up: species or system HeLa; Intracellular C. trachomatis growth in HeLa cells, bulk GFP fluorescence relative to DMSO
Details: bulk GFP, single well; 28.5 h, 10 µM; inhibitor

SMILES | % of control remaining
O=C(CCSc1nnnn1-c1ccc(C(=O)O)cc1)Nc1ccc(F)cc1 [CBK300497] | 165.857%
COc1ccc(S(=O)(=O)NC[C@H]2C[C@@H]3CC[N@]2C[C@@H]3CN2CCSCC2)cc1 [CBK288769] | 103.582%
CCCCc1c(C(=O)O)cc(OC)cc1C(=O)O [CBK217866] | 113.872%
CCCCCOc1ccc(Nc2cc(-c3ccco3)ncn2)cc1 [CBK090892] | 127.539%
COc1ccc(CCNc2c(Cc3ccccc3)c(C)c(C#N)c3nc4ccccc4n23)cc1OC [CBK263135] | 100%
CCCNc1cc(-c2cccc(Cl)c2)nc2ccnn12 [CBK037747] | 201.032%
CC(=O)N1c2ccc(NC(=O)C3(C)CCCO3)cc2CC1C (stereo not drawn) [CBK282702] | 135.699%
Cc1n[nH]c(=S)n1-c1ccc(Cl)cc1 [CBK012457] | 103.488%
Cc1ccc(O)c(NC(=O)c2nc3ncccn3n2)c1 [CBK267629] | 132.29%
COc1nc(N)nc2c1ccn2C1CC(O)C(CO)O1 (stereo not drawn) [CBK201177] | 88.7357%
C=Cn1ncc(CN2CCN(C3CCCCC3)C(=O)C2)c1C [CBK282526] | 121.968%
O=C(CSc1cc(Cl)ccc1Cl)Nc1cccc(Cl)c1 [CBK263712] | 75.4654%
O=C(c1ccco1)N1CCCC(n2c(=O)oc3ccc(Cl)cc32)C1 (stereo not drawn) [CBK282892] | 103.515%
CC(C)Oc1ccc(C(=O)N2CCN(c3ccccc3)CC2)cc1 [CBK305847] | 156.836%
COc1ccc([N+](=O)[O-])cc1N1CCN(C(=O)OC(C)(C)C)CC1 [CBK003504] | 86.1325%
O=C(CN1C(=O)S/C(=C\c2ccc(Cl)cc2)C1=O)Nc1cc([N+](=O)[O-])ccc1O [CBK262396] | 133.614%
CC(=O)N1CCN(c2ccc(NC(=O)c3cccc4c(Br)cccc34)cc2Cl)CC1 [CBK269624] | 129.352%
Fc1ccc(-c2cncc(NCc3ccncc3)n2)cc1Cl [CBK065343] | 188.14%
COc1ccc(Br)cc1CN(CCc1ccc2c(c1)OCO2)Cc1cccnc1 [CBK263327G] | 98.5124%
N#Cc1ccc(NC(=O)CCn2cnnn2)cc1 [CBK269832] | 116.099%
CCC(=O)N1CCC(NC(=O)N(CCc2ccccn2)Cc2ccccc2)CC1 [CBK171898] | 140.472%
COCCNS(=O)(=O)c1cc(OCC(N)=O)c(C)cc1Cl [CBK266461] | 112.86%
O=C(NCc1ccccc1)c1ccccc1NS(=O)(=O)c1ccccc1F [CBK113881] | 60.3951%
CCc1ocnc1C(=O)NC1CCN(c2ncccc2C#N)CC1 [CBK306935] | 90.388%
OC(CSc1ccccc1)CN1CCN(C(c2ccccc2)c2ccccc2)CC1 (stereo not drawn) [CBK074683] | 99.4372%
Cc1nc(C)n(CC2CCCN(Cc3ccccc3C#N)C2)n1 (stereo not drawn) [CBK305085] | 119.076%

For reference, part of the list above.
SMILES | % of control remaining
CC(=O)N1CCN(c2ccc(NC(=O)c3cccc4c(Br)cccc34)cc2Cl)CC1 [CBK269624] | 129.352%
Fc1ccc(-c2cncc(NCc3ccncc3)n2)cc1Cl [CBK065343] | 188.14%
COc1ccc(Br)cc1CN(CCc1ccc2c(c1)OCO2)Cc1cccnc1 [CBK263327G] | 98.5124%
N#Cc1ccc(NC(=O)CCn2cnnn2)cc1 [CBK269832] | 116.099%
CCC(=O)N1CCC(NC(=O)N(CCc2ccccn2)Cc2ccccc2)CC1 [CBK171898] | 140.472%
COCCNS(=O)(=O)c1cc(OCC(N)=O)c(C)cc1Cl [CBK266461] | 112.86%

Carrying on.

SMILES | % of control remaining
CC1CCc2nn(CCNC(=O)c3cccs3)c(=O)cc2C1 (stereo not drawn) [CBK284483] | 133.005%
Cc1sc2nc(C(C)N(C)Cc3cc[nH]n3)[nH]c(=O)c2c1C (stereo not drawn) [CBK306275] | 127.196%
O=C(O)c1ccc(NS(=O)(=O)c2ccc3ccccc3c2)cc1 [CBK034053] | 122.586%
O=c1n(Cc2ccncc2)nc(C(F)(F)F)c2cccn12 [CBK283966] | 168.577%
Cc1cccc(OCC(=O)N2CCN(Cc3ccccn3)CC2)c1 [CBK134023G] | 100%
OCc1cccc(-c2cncc(N3CCN(CCN4CCCC4)CC3)n2)c1 [CBK066136] | 161.093%
O=C(O)C1CC(=O)N(c2cccc3ccccc23)C1 (stereo not drawn) [CBK286902] | 128.632%
N#Cc1ccc(CSc2nnc(COc3ccccc3)n2Cc2ccco2)cc1 [CBK267539] | 113.657%
CC1(C(=O)O)NC(c2ccccc2O)C2C(=O)N(c3ccccc3[N+](=O)[O-])C(=O)C21 (stereo not drawn) [CBK264979] | 100%
CS(=O)(=O)NC1CCN(S(=O)(=O)c2cc(Cl)cc(Cl)c2)CC1 [CBK306082] | 134.041%
O=C(NCC1(c2ccccc2)CCCC1)c1ccc(NC(=O)C2COc3ccccc3O2)cc1 (stereo not drawn) [CBK266558] | 105.598%
Cc1ccc(-n2c(C)cc(/C=N/NC(=O)c3ccc(CN4CCOCC4)cc3)c2C)cc1 [CBK263324] | 103.748%
Cc1nc(C)c(C(=O)N2Cc3ccccc3C2)s1 [CBK200326] | 139.329%
Cc1ccc(CNC(=O)c2nnc(C(=O)Nc3cccc(Cl)c3)s2)o1 [CBK294404] | 128.708%
O=C(/C=C/c1cn(-c2ccccc2)nc1-c1cccnc1)c1ccc(-c2ccccc2)cc1 [CBK263213] | 130.338%
C=CCn1ncc(CN(CCN(C)C)Cc2ccc(C)o2)c1C [CBK282846] | 121.88%
COc1ccc(C(C)(C)C)cc1S(=O)(=O)NC1CC(C)(C)NC(C)(C)C1 [CBK267865] | 140.012%
O=C(COc1ccccc1[N+](=O)[O-])Nc1ccc(Br)cc1C(=O)O [CBK266008] | 178.847%
Clc1ccc(COc2nccnc2OC2CCN(Cc3ccncc3)CC2)cc1Cl [CBK153792] | 69.2419%
COC(=O)CC[C@H]1CNC(=O)[C@@H]2[C@@H](CCN2C)N1C [CBK289020] | 151.041%
O=C1C(NCCO)=C(Nc2cccc(Cl)c2)C(=O)c2ccccc21 [CBK264323] | 34.5586%
N#C/C(=C\c1ccc(N2CCOCC2)cc1)c1nc2ncc(Br)cc2[nH]1 [CBK266294] | 100%
Cc1nc(C)c(CCC(=O)NC2CCCc3ccccc32)c(=O)[nH]1 (stereo not drawn) [CBK295600] | 116.669%
CC(C)(C)OC(=O)N1CCN(c2nccnc2Cl)CC1 [CBK013554] | 103.699%
Clc1cc(Cl)c2[nH]c3c(c2c1)CCc1nonc1-3 [CBK025929] | 107.436%
CS(=O)(=O)Nc1ccc(C(=O)Nc2ccc(S(=O)(=O)N3CCOCC3)cc2)cc1 [CBK268379] | 78.1318%

SMILES | % of control remaining
CC(C)N1CCC[C@@H]2CN(C(=O)c3cccc(C(F)(F)F)c3)C[C@@H]21 [CBK285525] | 113.111%
CC1CN(C(=O)Nc2ccccc2F)CC(C)O1 (stereo not drawn) [CBK004990] | 125.161%
Cc1ccc(C2(C)CC(C)(C)N(C(=O)CSc3nnc[nH]3)c3ccccc32)cc1 (stereo not drawn) [CBK073918] | 40.2071%
COc1ccc(Cc2c(C)nc3c(C(=O)NCC4COc5ccccc5O4)cnn3c2C)cc1 (stereo not drawn) [CBK162179] | 121.163%
N#Cc1ccc(-c2cnc(N)c(-c3ccc(C(=O)N4CCOCC4)cc3)n2)cc1 [CBK064067T] | 77.6886%
NC(=O)C1(N2CCCCC2)CCN(C2CC(=O)N(Cc3ccc(N4CCCC4=O)cc3)C2=O)CC1 (stereo not drawn) [CBK266598] | 152.553%
COc1ccccc1NC(CC(=O)c1ccccc1)C(=O)O (stereo not drawn) [CBK287190] | 134.538%
O=C(NC1CCC1)c1cn2cc(-c3cccs3)n(CC3CC3)c(=O)c2n1 [CBK306863] | 154.739%
O=C(Nc1ccc(C(F)(F)F)cc1)C1=C(O)CN(c2ccc(Cl)cc2)C1=O [CBK017603] | 102.737%
O=C1CSC2c3ccccc3C(=O)N2c2ccccc21 (stereo not drawn) [CBK113670] | 102.181%
COc1ccccc1-c1ccc(C(=O)N(C)CCN(C)C)c(N(C)C)n1 [CBK106075] | 130.996%
CC(C)(CO)Cn1c(=O)[nH]c2ncc(-c3ccco3)nc21 [CBK064721] | 126.244%
CN(C)CCCNC(=O)C1CCN(c2nc3c(-c4ccccc4F)csc3c(=O)[nH]2)CC1 [CBK215438] | 128.602%
O=C(NC1CCCOC1)c1cnn(-c2ccc(F)cc2)c1 (stereo not drawn) [CBK283248] | 126.837%
c1csc(-c2nccnc2OCC2COc3ccccc3O2)c1 (stereo not drawn) [CBK107063] | 100.013%
CC1c2ccsc2CCN1C(=O)CC(NC(N)=O)c1cccc(Br)c1 (stereo not drawn) [CBK305635] | 110.358%
Nc1cccc(-c2nc(NC(=O)Cc3ccccc3)cnc2-c2ccc(F)cc2)c1 [CBK037550] | 168.475%
COC(=O)[C@H]1CN(C(=O)C2CC(=O)N(C)C2)C[C@@H]1c1ccc(F)cc1 (stereo partly drawn) [CBK283521] | 108.341%
Cc1nc(S)nc(O)c1Cc1ccc(C(=O)O)o1 [CBK266284] | 110.501%
COc1ccc(NC(=O)C(C)n2nc(C(=O)O)c3ccccc3c2=O)cc1 (stereo not drawn) [CBK295322] | 114.281%
Cc1ccccc1C(=O)Nc1cccc(-c2nnc(SCC(=O)c3ccc(Cl)cc3)n2C)c1 [CBK264053] | 100%
N#Cc1ccnc(N2CCN(CC(=O)NCC(F)(F)F)CC2)c1 [CBK305042] | 110.327%
N#C/C(=C\c1ccc(-c2ccc(C(=O)O)cc2)o1)C(=O)NCc1ccco1 [CBK263322] | 100%
Cc1cc(CC(=O)NCCCn2ccnc2C(C)C)on1 [CBK307270] | 134.781%
CC(=O)Nc1cccc(C(=O)O)c1Cl [CBK038814] | 145.238%
O=C(NC[C@H]1C[C@@H]2CC[N@]1C[C@@H]2CN1CCN(c2ncccn2)CC1)Nc1ccsc1 [CBK289117] | 104.306%
